# Source: the supplement of paper PMC8728848
# This is one part of the list.
# B1: SynCAM (Mus musculus) (protein)
# chain: MASAVLPSGSQCAAAAAVAAAAAPPGLRLRLLLLLLSAAALIPTGDGQNLFTKDVTVIEGEVATISCQVNKSDDSVIQLLNPNRQTIYFRDFRPLKDSRFQLLNFSSSELKVSLTNVSISDEGRYFCQLYTDPPQESYTTITVLVPPRNLMIDIQKDTAVEGEEIEVNCTAMASKPATTIRWFKGNKELKGKSEVEEWSDMYTVTSQLMLKVHKEDDGVPVICQVEHPAVTGNLQTQRYLEVQYKPQVHIQMTYPLQGLTREGDAFELTCEAIGKPQPVMVTWVRVDDEMPQHAVLSGPNLFINNLNKTDNGTYRCEASNIVGKAHSDYMLYVYDPPTTIPPP
# Legend:
# Assay in all cases: glycan array binding signal (z-score within array); higher = stronger binding
# Details in all cases: glycan notation: IUPAC condensed, linker removed
# [1] = target: Neu5Ac(a2-6)Gal(b1-4)GlcNAc(b1-2)Man(a1-6)[Man(a1-3)]Man(b1-4)GlcNAc(b1-4)GlcNAc
# Procedure, shortened: (§1)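 Arrays were curated from the Consortium for Functional Glycomics database, 3228 in total, and kept only where the protein sequence was available. Binding is expressed as a within-array Z-score. This score was averaged across arrays of the same protein sequence at different concentrations or buffers and across linkers, and negative values can be read as non-binding.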
# [2] = target: Neu5Ac(a2-6)Gal(b1-4)GlcNAc(b1-2)[Neu5Ac(a2-6)Gal(b1-4)GlcNAc(b1-4)]Man(a1-3)[GlcNAc(b1-4)][Neu5Ac(a2-6)Gal(b1-4)GlcNAc(b1-2)[Neu5Ac(a2-6)Gal(b1-4)GlcNAc(b1-6)]Man(a1-6)]Man(b1-4)GlcNAc(b1-4)GlcNAc
# Procedure, shortened: as §1
# [3] = target: Neu5Ac(a2-6)Gal(b1-4)GlcNAc(b1-2)[Neu5Ac(a2-6)Gal(b1-4)GlcNAc(b1-4)]Man(a1-3)[GlcNAc(b1-4)][Neu5Ac(a2-6)Gal(b1-4)GlcNAc(b1-4)Man(a1-6)]Man(b1-4)GlcNAc(b1-4)GlcNAc
# Procedure, shortened: as §1
# [4] = target: Neu5Ac(a2-6)Gal(b1-4)GlcNAc(b1-2)[Neu5Ac(a2-6)Gal(b1-4)GlcNAc(b1-6)]Man(a1-6)[Neu5Ac(a2-6)Gal(b1-4)GlcNAc(b1-2)Man(a1-3)][GlcNAc(b1-4)]Man(b1-4)GlcNAc(b1-4)GlcNAc
# Procedure, shortened: as §1
# [5] = target: Neu5Ac(a2-6)Gal(b1-4)GlcNAc(b1-3)Gal(b1-3)GlcNAc
# Procedure, shortened: as §1
# [6] = target: Neu5Ac(a2-6)Gal(b1-4)GlcNAc(b1-3)Gal(b1-4)GlcNAc
# Procedure, shortened: as §1
# [7] = target: Neu5Ac(a2-6)Gal(b1-4)GlcNAc(b1-3)Gal(b1-4)GlcNAc(b1-2)Man(a1-3)[Neu5Ac(a2-6)Gal(b1-4)GlcNAc(b1-3)Gal(b1-4)GlcNAc(b1-2)Man(a1-6)]GalNAc
# Procedure, shortened: as §1
# [8] = target: Neu5Ac(a2-6)Gal(b1-4)GlcNAc(b1-3)Gal(b1-4)GlcNAc(b1-3)Gal(b1-4)GlcNAc
# Procedure, shortened: as §1
# [9] = target: Neu5Ac(a2-6)Gal(b1-4)GlcNAc(b1-3)Gal(b1-4)GlcNAc(b1-3)Gal(b1-4)GlcNAc(b1-2)Man(a1-3)[Neu5Ac(a2-6)Gal(b1-4)GlcNAc(b1-3)Gal(b1-4)GlcNAc(b1-3)Gal(b1-4)GlcNAc(b1-2)Man(a1-6)]GalNAc
# Procedure, shortened: as §1
# [10] = target: Neu5Ac(a2-6)Gal(b1-4)GlcNAc(b1-3)Gal(b1-4)GlcNAc(b1-3)GalNAc
# Procedure, shortened: as §1
# [11] = target: Neu5Ac(a2-6)Gal(b1-4)GlcNAc(b1-3)Gal(b1-4)GlcNAc(b1-3)[Neu5Ac(a2-6)Gal(b1-4)GlcNAc(b1-3)Gal(b1-4)GlcNAc(b1-6)]GalNAc
# Procedure, shortened: as §1
# [12] = target: Neu5Ac(a2-6)Gal(b1-4)GlcNAc(b1-3)Gal(b1-4)GlcNAc(b1-6)[Gal(b1-3)]GalNAc
# Procedure, shortened: as §1
# [13] = target: Neu5Ac(a2-6)Gal(b1-4)GlcNAc(b1-3)Gal(b1-4)[Fuc(a1-3)]GlcNAc(b1-3)Gal(b1-4)[Fuc(a1-3)]GlcNAc
# Procedure, shortened: as §1
# [14] = target: Neu5Ac(a2-6)Gal(b1-4)GlcNAc(b1-3)GalNAc
# Procedure, shortened: as §1
# [15] = target: Neu5Ac(a2-6)Gal(b1-4)GlcNAc(b1-3)[Neu5Ac(a2-6)Gal(b1-4)GlcNAc(b1-6)]GalNAc
# Procedure, shortened: as §1
# [16] = target: Neu5Ac(a2-6)Gal(b1-4)GlcNAc(b1-6)GalNAc
# Procedure, shortened: as §1
# [17] = target: Neu5Ac(a2-6)Gal(b1-4)GlcNAc(b1-6)[Gal(b1-3)GlcNAc(b1-3)]Gal(b1-4)Glc
# Procedure, shortened: as §1
# [18] = target: Neu5Ac(a2-6)Gal(b1-4)GlcNAc(b1-6)[Gal(b1-3)]GalNAc
# Procedure, shortened: as §1
# [19] = target: Neu5Ac(a2-6)Gal(b1-4)GlcNAc6S
# Procedure, shortened: as §1
# Neu5Ac(a2-6)GalNAc = target: Neu5Ac(a2-6)GalNAc
# Procedure, shortened: as §1
# [20] = target: Neu5Ac(a2-6)GalNAc(b1-4)GlcNAc
# Procedure, shortened: as §1
# [21] = target: Neu5Ac(a2-6)GalNAc(b1-4)GlcNAc6S
# Procedure, shortened: as §1
# [22] = target: Neu5Ac(a2-6)GlcNAc(b1-4)GlcNAc
# Procedure, shortened: as §1
binder,measurement,setting,value
B1,glycan array binding signal (z-score),[1],-0.088
same,glycan array binding signal (z-score),[2],0.326
same,glycan array binding signal (z-score),[3],-0.75
same,glycan array binding signal (z-score),[4],-1.1
same,glycan array binding signal (z-score),[5],-0.322
same,glycan array binding signal (z-score),[6],0.787
same,glycan array binding signal (z-score),[7],0.293
same,glycan array binding signal (z-score),[8],-1.54
same,glycan array binding signal (z-score),[9],2.42
same,glycan array binding signal (z-score),[10],-0.464
same,glycan array binding signal (z-score),[11],-0.209
same,glycan array binding signal (z-score),[12],-0.223
same,glycan array binding signal (z-score),[13],0.333
same,glycan array binding signal (z-score),[14],-0.312
same,glycan array binding signal (z-score),[15],-0.931
same,glycan array binding signal (z-score),[16],-1.03
same,glycan array binding signal (z-score),[17],-1.71
same,glycan array binding signal (z-score),[18],-0.68
same,glycan array binding signal (z-score),[19],-0.103
same,glycan array binding signal (z-score),Neu5Ac(a2-6)GalNAc,-1.22
same,glycan array binding signal (z-score),[20],-0.937
same,glycan array binding signal (z-score),[21],0.811
same,glycan array binding signal (z-score),[22],-0.658

# Exported tab-delimited: entries from further up
binder	measurement	setting	value
B1	glycan array binding signal (z-score)	[20]	-0.937
same	glycan array binding signal (z-score)	[21]	0.811
